Measured values as given in publication PMC7819943, “Rice protein-binding microarrays: a tool to detect cis-acting elements near promoter regions in rice”.
This is one part of the list.

The chains behind the UniProt entries cited, without tags or fusion partners.
UniProt Q0JBA9, entry or part of it: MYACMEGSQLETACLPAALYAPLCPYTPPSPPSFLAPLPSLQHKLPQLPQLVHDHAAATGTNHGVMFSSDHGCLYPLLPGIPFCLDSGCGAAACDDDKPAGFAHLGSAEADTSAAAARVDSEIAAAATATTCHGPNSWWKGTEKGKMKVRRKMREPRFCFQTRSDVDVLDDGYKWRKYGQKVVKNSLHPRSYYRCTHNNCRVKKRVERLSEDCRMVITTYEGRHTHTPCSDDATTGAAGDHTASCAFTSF

The sequences below were run against OsWRKY34 (Oryza sativa, UniProt Q0JBA9 1-250) (assay: protein-binding microarray (RPBM); PBS, 2% BSA, 51.3 ng/ul salmon testes DNA, 50 uM zinc acetate, 200 nM TF, 25 C, 1 h; high values mean tight binding). Details: protein: recombinant; tags: N-terminal polyhistidine and DsRed monomer fusion (pET32a); label: CyDye5-dUTP incorporated in the synthesized complementary strand; 3' TTTTT single-stranded linker to array surface; dsDNA, one strand shown.
In short: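 An Axon 4000B scanner gave the binding signal as per-feature fluorescence intensity in arbitrary units. This followed washing of a custom Agilent array that had been incubated for 1 h at 25 °C with 200 nM protein in PBS, 2% BSA, salmon testes DNA and 50 µM zinc acetate. The proteins were transcription factors fused at the N-terminus to polyhistidine and DsRed, expressed in E. coli BL21-CodonPlus and purified on Ni–NTA.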

Row | Sequence | binding signal
1 | CCGTTGTGTACTTTCAGCGGCTTTGGTTCGTGTTCCTCGCCGGAGTCACCTAGTGCAG | 9810 fluorescence intensity (a.u.)
2 | ATACACGGATACACCACCTTCATCTCTCCTGTGTTTTCCTCGGAGTCACCTAGTGCAG | 9760 fluorescence intensity (a.u.)
3 | GTGGCTCTGAATCTCAACTCATGCGCCACTTTGTTTCAAACGGAGTCACCTAGTGCAG | 8320 fluorescence intensity (a.u.)
4 | ACGGCCGCGCGCACCACCGCCTCGGCGGGCTGTATCTCAGCGGAGTCACCTAGTGCAG | 8080 fluorescence intensity (a.u.)
5 | TTTGTGTTGTCTAGACATTTTTTTCTATTTTTCACCTATTCGGAGTCACCTAGTGCAG | 9190 fluorescence intensity (a.u.)
6 | TGCAAATACACCACAGGGTATTTTTTTTGTCTCTGATTTTCGGAGTCACCTAGTGCAG | 8450 fluorescence intensity (a.u.)
7 | TCTTTTAAATCTAATTGCTCTATGATTTGACCATGTGGTGCGGAGTCACCTAGTGCAG | 8520 fluorescence intensity (a.u.)
8 | AAAATTTGTGCCAGTTTGCTTGTTATTACGAATGGTAACACGGAGTCACCTAGTGCAG | 8070 fluorescence intensity (a.u.)
9 | ACACACAGCCACTGCCGCAATTCGCAAATGACCAACGATCCGGAGTCACCTAGTGCAG | 8590 fluorescence intensity (a.u.)
10 | AAGCCATCCGATCTCATCTCATCTCATCTCACCCTCGCCGCGGAGTCACCTAGTGCAG | 8890 fluorescence intensity (a.u.)
11 | AACCAGCATCTACCACTGCTTCTCCCGCCTCTGCTGCAACCGGAGTCACCTAGTGCAG | 10700 fluorescence intensity (a.u.)
12 | ACACATAAGATATTCTATCTATATTCGGTATCCTATATTCCGGAGTCACCTAGTGCAG | 8280 fluorescence intensity (a.u.)
13 | CACCATAACTAATTAACAAGCCACCTATTTCCTCTTGACACGGAGTCACCTAGTGCAG | 8200 fluorescence intensity (a.u.)
14 | ACTTACACACAACGTACCAGTACTAATAATGCATAGCAAACGGAGTCACCTAGTGCAG | 8650 fluorescence intensity (a.u.)
15 | ACGAATTACACTTTTACGGTCAGGATAGACTGCTTATAATCGGAGTCACCTAGTGCAG | 8820 fluorescence intensity (a.u.)
16 | CACAATCTTTCACCACTCACTTCTACCTATTTTTTTAATACGGAGTCACCTAGTGCAG | 10200 fluorescence intensity (a.u.)
17 | GAGTATTTTTTTTTTTTTTGGGTATCCATCCAACCGGCGACGGAGTCACCTAGTGCAG | 10200 fluorescence intensity (a.u.)
18 | GACCTTTTTTTCTTTTCTTCTTTGTTCTTTGTTGTTCTCTCGGAGTCACCTAGTGCAG | 10700 fluorescence intensity (a.u.)
19 | AAGTTTCGTGCCTTACTTGTATCTTAACCATGTCATCAGGCGGAGTCACCTAGTGCAG | 10700 fluorescence intensity (a.u.)
20 | AATTTACTCATTTTAGTATTTTTCTTTTTCCGCACCTTTCCGGAGTCACCTAGTGCAG | 9520 fluorescence intensity (a.u.)
21 | GGGTCGTTGCTGCTCCTCGGTCGGTCAGCCTCAGCCTCATCGGAGTCACCTAGTGCAG | 8850 fluorescence intensity (a.u.)
22 | AACGAACACCCACACACATACACACACAGATGCCCAACACCGGAGTCACCTAGTGCAG | 9650 fluorescence intensity (a.u.)
23 | ACATAGTAATTTTGCATGGCCATCATCTTGCCCTCCTATACGGAGTCACCTAGTGCAG | 9620 fluorescence intensity (a.u.)
24 | CTCCTCACTCTCTAGCTTGCTCCAGTTTCGCGTAGCTGCGCGGAGTCACCTAGTGCAG | 8192 fluorescence intensity (a.u.)
25 | TGGGTGGGTCATCACTGGTCAGAGACGACGGGCATGCATTCGGAGTCACCTAGTGCAG | 12700 fluorescence intensity (a.u.)
26 | TGGTTGGTGGTGTCTGTGCGTGTTCCGGCGAGTGGTCGGTCGGAGTCACCTAGTGCAG | 13000 fluorescence intensity (a.u.)
27 | TTGTTTGACTCTTTTTTAATTAAATTTCTATAAGTTTAATCGGAGTCACCTAGTGCAG | 8280 fluorescence intensity (a.u.)

Reprinted at random: 3 records from the list, in no set order.
Row | Sequence | binding signal
19 | AAGTTTCGTGCCTTACTTGTATCTTAACCATGTCATCAGGCGGAGTCACCTAGTGCAG | 10700 fluorescence intensity (a.u.)
9 | ACACACAGCCACTGCCGCAATTCGCAAATGACCAACGATCCGGAGTCACCTAGTGCAG | 8590 fluorescence intensity (a.u.)
16 | CACAATCTTTCACCACTCACTTCTACCTATTTTTTTAATACGGAGTCACCTAGTGCAG | 10200 fluorescence intensity (a.u.)

The list continues.

Row | Sequence | binding signal
28 | GAGATGGGCTGCATGGGGAGGGGAGTGCAACATTTTTTTGCGGAGTCACCTAGTGCAG | 11000 fluorescence intensity (a.u.)
29 | AAATTTTATTCTCATATGGCACTTTATATAGCTCACCTATCGGAGTCACCTAGTGCAG | 8420 fluorescence intensity (a.u.)
30 | AGCAAAACACTCGTCGTCGTCGCCGTCGCGTCCGCCGGAGCGGAGTCACCTAGTGCAG | 9330 fluorescence intensity (a.u.)
31 | CGCTTCCTGTTGTGATTATGTAATCTTGTATTCTTGTTGACGGAGTCACCTAGTGCAG | 11600 fluorescence intensity (a.u.)
32 | GCGCCATCCACCATTACAAAGGTGTCTCCACCGATCGAACCGGAGTCACCTAGTGCAG | 9760 fluorescence intensity (a.u.)
33 | GTGTGGTACTCTGTTGTATCCTTGGTGTACGGGTGTTGGACGGAGTCACCTAGTGCAG | 9980 fluorescence intensity (a.u.)
34 | GTCGATGTGCCGTCTCCTTTGTTGCTTTTCACCTTTTCTTCGGAGTCACCTAGTGCAG | 10500 fluorescence intensity (a.u.)
35 | CTGGGTACAACGAAGTTCTGTGGTCCTCTAACATCTTGTCCGGAGTCACCTAGTGCAG | 9140 fluorescence intensity (a.u.)
36 | GGATTGGTCAAGGACTCCTCTTTTATTATGTCGATTTTTTCGGAGTCACCTAGTGCAG | 11100 fluorescence intensity (a.u.)
37 | TTCTTATCCTAGGGGTGTTTAGATGGGGCTAAAACTTTTTCGGAGTCACCTAGTGCAG | 9310 fluorescence intensity (a.u.)
38 | CCTGATTATTTGGTCTCGAATGGGTTCACATTCTTTATCTCGGAGTCACCTAGTGCAG | 8340 fluorescence intensity (a.u.)
39 | GGAGGCGGTGGTGTTGGAGTTGGAGGGCGCGTGGAGGTGGCGGAGTCACCTAGTGCAG | 12900 fluorescence intensity (a.u.)
40 | GCCGCGAGTGTCCGATAGCTAATTACCAGTTTTTTTTCGTCGGAGTCACCTAGTGCAG | 8190 fluorescence intensity (a.u.)
41 | GGAGAGGCGTTGGATTAGATTGGACGGTGGATTGCCTCGACGGAGTCACCTAGTGCAG | 8680 fluorescence intensity (a.u.)
42 | TTTAACACATGTTTGACCGTTCGTCTTATTCAAAAACTTTCGGAGTCACCTAGTGCAG | 10900 fluorescence intensity (a.u.)
43 | CTTCCCTAAATGTTTAACGCCATTGACTTTTTTAAACATGCGGAGTCACCTAGTGCAG | 12900 fluorescence intensity (a.u.)
44 | GAATTTCTTCGCCCTACCACTTCGGTCCATCTGAAGAAATCGGAGTCACCTAGTGCAG | 8320 fluorescence intensity (a.u.)
45 | CCTCACCCCGTCCCGATGACCGATCCGATCTAGCAACCAACGGAGTCACCTAGTGCAG | 8100 fluorescence intensity (a.u.)
46 | TGAAGTTCTTATGGTCGCTAATCGTTTGCTTGCTGTTTGACGGAGTCACCTAGTGCAG | 10200 fluorescence intensity (a.u.)
47 | TCACGGCCGCCTCCGCCATCTGCACAACCTCGCCGCCGCCCGGAGTCACCTAGTGCAG | 9670 fluorescence intensity (a.u.)
48 | GGTTTTTTTACGGATAAATCTGGTTTTTTTGTCCGATTTTCGGAGTCACCTAGTGCAG | 8170 fluorescence intensity (a.u.)
49 | GATATCCGGTTTTGTAGTTTAGGGTCATGGTTTAGATTTCCGGAGTCACCTAGTGCAG | 14600 fluorescence intensity (a.u.)
50 | CTGTTTTTGCCTTTCGATTCCGTCAATAGACTTAGCTATTCGGAGTCACCTAGTGCAG | 8570 fluorescence intensity (a.u.)
51 | GCTCCATCCTCTATACCCTATCTCTACTACCTACCCGCTCCGGAGTCACCTAGTGCAG | 9100 fluorescence intensity (a.u.)
52 | CCCTTACATTATTCCCATGTTTTATATAATTTCAAATTTTCGGAGTCACCTAGTGCAG | 10300 fluorescence intensity (a.u.)
53 | TGTCACGCACTAATCCGCTGTTTTCTCCGGCCGTTCGCCTCGGAGTCACCTAGTGCAG | 11900 fluorescence intensity (a.u.)
54 | GTCGCCCGTGCATCACTATATCGCACCTCGGTTTCACCCTCGGAGTCACCTAGTGCAG | 10900 fluorescence intensity (a.u.)
